Results published in article PMC9979126.
These are yes or no findings as the source states them, for the method shown. For some of these results: Binding seen in cells or lysates may run through a third protein. Some results given as binding are weak or reduced against the parent protein; the word gives no strength. For some of these results: Where a sequence is shown, tags or fusion partners need not be part of it.

Legend:
[1] = target: T1, HA-Spi2a (serine protease inhibitor 2A, Serpina3g) (mouse) (UniProt Q5I2A0); assay: co-IP; HA antibody IP from BMDMs transduced with control or HA-Spi2a-lentivirus; western blot
T1 sequence: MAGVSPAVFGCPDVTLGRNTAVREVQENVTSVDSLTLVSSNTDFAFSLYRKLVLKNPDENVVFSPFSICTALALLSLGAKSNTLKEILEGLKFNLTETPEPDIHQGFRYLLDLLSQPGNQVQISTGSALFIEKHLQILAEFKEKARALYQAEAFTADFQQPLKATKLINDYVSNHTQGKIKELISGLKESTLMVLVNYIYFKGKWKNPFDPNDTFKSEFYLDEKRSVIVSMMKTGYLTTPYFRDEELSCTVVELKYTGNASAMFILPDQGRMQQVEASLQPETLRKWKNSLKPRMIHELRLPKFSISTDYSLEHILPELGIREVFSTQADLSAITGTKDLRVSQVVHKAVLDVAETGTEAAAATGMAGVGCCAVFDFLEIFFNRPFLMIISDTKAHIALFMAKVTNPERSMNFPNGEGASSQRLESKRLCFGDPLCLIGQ

[2] = target: T1, HA-Spi2a (serine protease inhibitor 2A, Serpina3g) (mouse); assay: co-IP; HA or His antibody IP from BMDMs (macrophages) infected with HA-Spi2a- and His-Ikkβ-lentivirus; western blot
[3] = target: T2, Recombinant Spi2a (mouse) (UniProt Q5I2A0); assay: co-IP; in vitro: recombinant Spi2a and IKKβ mixed, incubated with Spi2a or IKKβ antibody for 4 h, then protein A/G beads for 2 h at 4 °C; western blot; both purified
T2 sequence: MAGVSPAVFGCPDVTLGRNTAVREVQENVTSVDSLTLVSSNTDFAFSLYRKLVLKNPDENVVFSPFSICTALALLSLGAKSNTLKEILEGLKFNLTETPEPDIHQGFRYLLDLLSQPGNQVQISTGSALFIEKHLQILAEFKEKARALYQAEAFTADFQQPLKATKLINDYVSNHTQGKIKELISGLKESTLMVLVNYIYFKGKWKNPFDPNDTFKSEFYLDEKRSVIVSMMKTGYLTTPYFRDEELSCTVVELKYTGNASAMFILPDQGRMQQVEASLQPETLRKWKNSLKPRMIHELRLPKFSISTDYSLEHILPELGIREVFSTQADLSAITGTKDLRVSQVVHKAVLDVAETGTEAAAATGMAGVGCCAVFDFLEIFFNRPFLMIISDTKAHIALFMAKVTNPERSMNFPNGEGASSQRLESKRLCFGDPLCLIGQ

[4] = target: T3, SERPINA3 (human orthologue of Spi2a) (human) (UniProt P01011); assay: co-IP; human macrophages; told only as 'like the data in BMDMs' (Fig. S10j not shown)
T3 sequence: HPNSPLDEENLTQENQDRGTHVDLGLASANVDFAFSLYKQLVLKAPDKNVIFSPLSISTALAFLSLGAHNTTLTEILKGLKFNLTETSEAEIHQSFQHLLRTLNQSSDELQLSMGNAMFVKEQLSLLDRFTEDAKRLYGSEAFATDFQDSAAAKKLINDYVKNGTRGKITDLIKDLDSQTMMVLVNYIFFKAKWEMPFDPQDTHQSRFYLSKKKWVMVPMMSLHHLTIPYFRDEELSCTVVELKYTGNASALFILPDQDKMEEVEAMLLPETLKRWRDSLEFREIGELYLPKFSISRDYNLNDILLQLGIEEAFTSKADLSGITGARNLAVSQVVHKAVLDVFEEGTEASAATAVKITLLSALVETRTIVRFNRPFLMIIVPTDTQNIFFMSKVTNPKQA

B1: IKKβ (IkappaB kinase β), endogenous in BMDMs (protein, UniProt O88351 1-757)
chain: MSWSPSLPTQTCGAWEMKERLGTGGFGNVIRWHNQATGEQIAIKQCRQELSPKNRNRWCLEIQIMRRLNHPNVVAARDVPEGMQNLAPNDLPLLAMEYCQGGDLRRYLNQFENCCGLREGAVLTLLSDIASALRYLHENRIIHRDLKPENIVLQQGEKRLIHKIIDLGYAKELDQGSLCTSFVGTLQYLAPELLEQQKYTVTVDYWSFGTLAFECITGFRPFLPNWQPVQWHSKVRQKSEVDIVVSEDLNGAVKFSSSLPFPNNLNSVLAERLEKWLQLMLMWHPRQRGTDPQYGPNGCFRALDDILNLKLVHVLNMVTGTVHTYPVTEDESLQSLKTRIQENTGILETDQELLQKAGLVLLPDKPATQCISDSKTNEGLTLDMDLVFLLDNSKINYETQITPRPPPESVSCILQEPKRNLSFFQLRKVWGQVWHSIQTLKEDCNRLQQGQRAAMMSLLRNNSCLSKMKNAMASTAQQLKAKLDFFKTSIQIDLEKYKEQTEFGITSDKLLLAWREMEQAVEQCGRENDVKHLVERMMALQTDIVDLQRSPMGRKQGGTLDDLEEQARELYRKLREKPRDQRTEGDSQEMVRLLLQAIQSFEKKVRVIYTQLSKTVVCKQKALELLPKVEEVVSLMNEDERTVVRLQEKRQKELWNLLKIACSKVRGPVSGSPDSMNVSRLSHPGQLMSQPSSACDSLPESDKKSEELVAEAHALCSRLESALQDTVKEQDRSFTTLDWSWLQMEDEERCSLEQACD
binding [1]: binds

B2: His-IKKβ (mouse) (protein, UniProt O88351 1-757)
chain: MSWSPSLPTQTCGAWEMKERLGTGGFGNVIRWHNQATGEQIAIKQCRQELSPKNRNRWCLEIQIMRRLNHPNVVAARDVPEGMQNLAPNDLPLLAMEYCQGGDLRRYLNQFENCCGLREGAVLTLLSDIASALRYLHENRIIHRDLKPENIVLQQGEKRLIHKIIDLGYAKELDQGSLCTSFVGTLQYLAPELLEQQKYTVTVDYWSFGTLAFECITGFRPFLPNWQPVQWHSKVRQKSEVDIVVSEDLNGAVKFSSSLPFPNNLNSVLAERLEKWLQLMLMWHPRQRGTDPQYGPNGCFRALDDILNLKLVHVLNMVTGTVHTYPVTEDESLQSLKTRIQENTGILETDQELLQKAGLVLLPDKPATQCISDSKTNEGLTLDMDLVFLLDNSKINYETQITPRPPPESVSCILQEPKRNLSFFQLRKVWGQVWHSIQTLKEDCNRLQQGQRAAMMSLLRNNSCLSKMKNAMASTAQQLKAKLDFFKTSIQIDLEKYKEQTEFGITSDKLLLAWREMEQAVEQCGRENDVKHLVERMMALQTDIVDLQRSPMGRKQGGTLDDLEEQARELYRKLREKPRDQRTEGDSQEMVRLLLQAIQSFEKKVRVIYTQLSKTVVCKQKALELLPKVEEVVSLMNEDERTVVRLQEKRQKELWNLLKIACSKVRGPVSGSPDSMNVSRLSHPGQLMSQPSSACDSLPESDKKSEELVAEAHALCSRLESALQDTVKEQDRSFTTLDWSWLQMEDEERCSLEQACD
binding [2]: binds

B3: Recombinant IKKβ (protein, UniProt O88351 1-757)
chain: MSWSPSLPTQTCGAWEMKERLGTGGFGNVIRWHNQATGEQIAIKQCRQELSPKNRNRWCLEIQIMRRLNHPNVVAARDVPEGMQNLAPNDLPLLAMEYCQGGDLRRYLNQFENCCGLREGAVLTLLSDIASALRYLHENRIIHRDLKPENIVLQQGEKRLIHKIIDLGYAKELDQGSLCTSFVGTLQYLAPELLEQQKYTVTVDYWSFGTLAFECITGFRPFLPNWQPVQWHSKVRQKSEVDIVVSEDLNGAVKFSSSLPFPNNLNSVLAERLEKWLQLMLMWHPRQRGTDPQYGPNGCFRALDDILNLKLVHVLNMVTGTVHTYPVTEDESLQSLKTRIQENTGILETDQELLQKAGLVLLPDKPATQCISDSKTNEGLTLDMDLVFLLDNSKINYETQITPRPPPESVSCILQEPKRNLSFFQLRKVWGQVWHSIQTLKEDCNRLQQGQRAAMMSLLRNNSCLSKMKNAMASTAQQLKAKLDFFKTSIQIDLEKYKEQTEFGITSDKLLLAWREMEQAVEQCGRENDVKHLVERMMALQTDIVDLQRSPMGRKQGGTLDDLEEQARELYRKLREKPRDQRTEGDSQEMVRLLLQAIQSFEKKVRVIYTQLSKTVVCKQKALELLPKVEEVVSLMNEDERTVVRLQEKRQKELWNLLKIACSKVRGPVSGSPDSMNVSRLSHPGQLMSQPSSACDSLPESDKKSEELVAEAHALCSRLESALQDTVKEQDRSFTTLDWSWLQMEDEERCSLEQACD
binding [3]: binds

B4: IKKβ (human) (protein, UniProt O14920-1 1-756)
chain: MSWSPSLTTQTCGAWEMKERLGTGGFGNVIRWHNQETGEQIAIKQCRQELSPRNRERWCLEIQIMRRLTHPNVVAARDVPEGMQNLAPNDLPLLAMEYCQGGDLRKYLNQFENCCGLREGAILTLLSDIASALRYLHENRIIHRDLKPENIVLQQGEQRLIHKIIDLGYAKELDQGSLCTSFVGTLQYLAPELLEQQKYTVTVDYWSFGTLAFECITGFRPFLPNWQPVQWHSKVRQKSEVDIVVSEDLNGTVKFSSSLPYPNNLNSVLAERLEKWLQLMLMWHPRQRGTDPTYGPNGCFKALDDILNLKLVHILNMVTGTIHTYPVTEDESLQSLKARIQQDTGIPEEDQELLQEAGLALIPDKPATQCISDGKLNEGHTLDMDLVFLFDNSKITYETQISPRPQPESVSCILQEPKRNLAFFQLRKVWGQVWHSIQTLKEDCNRLQQGQRAAMMNLLRNNSCLSKMKNSMASMSQQLKAKLDFFKTSIQIDLEKYSEQTEFGITSDKLLLAWREMEQAVELCGRENEVKLLVERMMALQTDIVDLQRSPMGRKQGGTLDDLEEQARELYRRLREKPRDQRTEGDSQEMVRLLLQAIQSFEKKVRVIYTQLSKTVVCKQKALELLPKVEEVVSLMNEDEKTVVRLQEKRQKELWNLLKIACSKVRGPVSGSPDSMNASRLSQPGQLMSQPSTASNSLPEPAKKSEELVAEAHNLCTLLENAIQDTVREQDQSFTALDWSWLQTEEEEHSCLEQAS
binding [4]: binds
